PubChem BioAssay AID602196 | INSERM – 2012
Shown is an unselected part of about 23,000 reagents. Of all reagents, 455 (2%) got an active call. 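Active includes both protection and sensitisation; some change values fall well beyond the stated -50 to +50 range.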 A number with no mark means an inactive call. Further read-outs or replicates are left out here. The record does not give: the amount of reagent.

Aim: 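Modifiers of cisplatin sensitivity in A549 cells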
System: human A549 lung cancer cells
Reagent: siRNA pair against human genes
Time to read-out: 48 h transfection before cisplatin; time from cisplatin to read-out not stated
Conditions: cisplatin at a dose killing half of control-siRNA cells; exact dose and duration not given
Measured: 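Shift in cisplatin death relative to control siRNA, from -50 (all cells die) to +50 (no cells die); siRNAs harmful on their own scored 0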
Scale: two-siRNA summed score (-2 to +2): higher = both siRNAs protect from cisplatin killing; -2 means both sensitise
Hit rule: 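siRNAs harmful alone (LDH or WST-1) get 0; others get +1 for less and -1 for more cisplatin killing; genes are active when the two siRNAs give the same sign, summing to ±2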
Calls: active = both siRNAs shift cisplatin killing the same way; inactive = no consistent shift, or siRNA harmful alone

LOC400690 [SID131506713]
- two-siRNA summed score (-2 to +2): 0

VAMP1 [SID131502399]
- two-siRNA summed score (-2 to +2): -1

SLFN12 [SID131504436]
- two-siRNA summed score (-2 to +2): 0

STARD10 [SID131522136]
- two-siRNA summed score (-2 to +2): 1

LOC441222 [SID131508896]
- two-siRNA summed score (-2 to +2): 0

LOC442124 [SID131522879]
- two-siRNA summed score (-2 to +2): 1

CD209 [SID131502892]
- two-siRNA summed score (-2 to +2): 0

LOC401270 [SID131513471]
- two-siRNA summed score (-2 to +2): 0

LOC441000 [SID131511471]
- two-siRNA summed score (-2 to +2): 0

ATXN2L [SID131500482]
- two-siRNA summed score (-2 to +2): -1

ZSCAN20 [SID131519671]
- two-siRNA summed score (-2 to +2): 1

ERLEC1 [SID131513254]
- two-siRNA summed score (-2 to +2): 0

GTF2F2 [SID131511986]
- two-siRNA summed score (-2 to +2): 0

AIFM1 [SID131507554]
- two-siRNA summed score (-2 to +2): 0

POFUT4 [SID131503518]
- two-siRNA summed score (-2 to +2): 0

LOC442520 [SID131516190]
- two-siRNA summed score (-2 to +2): 0

PCBD2 [SID131512379]
- two-siRNA summed score (-2 to +2): 0

GRIN3B [SID131517199]
- two-siRNA summed score (-2 to +2): 0

STPG3 [SID131515232]
- two-siRNA summed score (-2 to +2): 0

LOC441052 [SID131513565]
- two-siRNA summed score (-2 to +2): 0

MYEOV [SID131508727]
- two-siRNA summed score (-2 to +2): 0

CDC42SE1 [SID131510959]
- two-siRNA summed score (-2 to +2): 0

COIL [SID131503303]
- two-siRNA summed score (-2 to +2): 0

LOC442523 [SID131515257]
- two-siRNA summed score (-2 to +2): 0

LAMP5 [SID131501654]
- two-siRNA summed score (-2 to +2): -1

CCDC177 [SID131507414]
- two-siRNA summed score (-2 to +2): 0

IKBIP [SID131522823]
- two-siRNA summed score (-2 to +2): 1

SEC14L4 [SID131503197]
- two-siRNA summed score (-2 to +2): 0

LOC401528 [SID131515548]
- two-siRNA summed score (-2 to +2): 0

LINC00484 [SID131510682]
- two-siRNA summed score (-2 to +2): 0

STK32C [SID131508991]
- two-siRNA summed score (-2 to +2): 0

ITGA10 [SID131500912]
- two-siRNA summed score (-2 to +2): -1

FOXK2 [SID131501114]
- two-siRNA summed score (-2 to +2): -1

OR2T11 [SID131521669]
- two-siRNA summed score (-2 to +2): 1

FBLIM1P2 [SID131502365]
- two-siRNA summed score (-2 to +2): -1

LOC199897 (retired record) [SID131523072]
- two-siRNA summed score (-2 to +2): 2 (active)

TMEM184B [SID131522423]
- two-siRNA summed score (-2 to +2): 1

RFTN2 [SID131513629]
- two-siRNA summed score (-2 to +2): 0

APRT [SID131507621]
- two-siRNA summed score (-2 to +2): 0

TMEM62 [SID131503795]
- two-siRNA summed score (-2 to +2): 0

Records listed so far whose gene name begins with G or g (2):
GTF2F2 [SID131511986]
- two-siRNA summed score (-2 to +2): 0

GRIN3B [SID131517199]
- two-siRNA summed score (-2 to +2): 0
